Laboratory results published in patent publication US20250332275A1 (SUZHOU HEALIRNA BIOTECHNOLOGY CO., LTD., priority 2022, published 2025).

Experiment: peptide synthesis
Details: whole synthesis, identity by MS

K(LSLLSLC)KKK(LSLLSLC)
final HPLC purity: 97%
